Source: PMC4739330
No constants are given. Whether binding was seen depends on the method and setting. Binding seen in cells or lysates may run through a third protein. Some results given as binding are weak or reduced against the parent protein; the word gives no strength.

Amino acid sequences for entries named in this document (tags omitted).
UniProt Q06945: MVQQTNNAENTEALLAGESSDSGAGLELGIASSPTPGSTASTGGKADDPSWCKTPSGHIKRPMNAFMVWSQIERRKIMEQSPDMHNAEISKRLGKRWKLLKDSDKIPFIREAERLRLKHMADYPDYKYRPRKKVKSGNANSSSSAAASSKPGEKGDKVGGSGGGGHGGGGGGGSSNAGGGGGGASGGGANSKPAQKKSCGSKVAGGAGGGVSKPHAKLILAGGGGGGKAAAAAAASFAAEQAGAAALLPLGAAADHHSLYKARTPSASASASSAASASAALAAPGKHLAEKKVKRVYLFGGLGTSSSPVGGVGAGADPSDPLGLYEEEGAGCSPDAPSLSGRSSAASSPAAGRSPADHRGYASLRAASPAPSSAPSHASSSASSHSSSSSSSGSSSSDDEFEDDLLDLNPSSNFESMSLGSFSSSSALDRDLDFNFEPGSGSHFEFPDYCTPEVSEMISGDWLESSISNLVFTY
UniProt P35222: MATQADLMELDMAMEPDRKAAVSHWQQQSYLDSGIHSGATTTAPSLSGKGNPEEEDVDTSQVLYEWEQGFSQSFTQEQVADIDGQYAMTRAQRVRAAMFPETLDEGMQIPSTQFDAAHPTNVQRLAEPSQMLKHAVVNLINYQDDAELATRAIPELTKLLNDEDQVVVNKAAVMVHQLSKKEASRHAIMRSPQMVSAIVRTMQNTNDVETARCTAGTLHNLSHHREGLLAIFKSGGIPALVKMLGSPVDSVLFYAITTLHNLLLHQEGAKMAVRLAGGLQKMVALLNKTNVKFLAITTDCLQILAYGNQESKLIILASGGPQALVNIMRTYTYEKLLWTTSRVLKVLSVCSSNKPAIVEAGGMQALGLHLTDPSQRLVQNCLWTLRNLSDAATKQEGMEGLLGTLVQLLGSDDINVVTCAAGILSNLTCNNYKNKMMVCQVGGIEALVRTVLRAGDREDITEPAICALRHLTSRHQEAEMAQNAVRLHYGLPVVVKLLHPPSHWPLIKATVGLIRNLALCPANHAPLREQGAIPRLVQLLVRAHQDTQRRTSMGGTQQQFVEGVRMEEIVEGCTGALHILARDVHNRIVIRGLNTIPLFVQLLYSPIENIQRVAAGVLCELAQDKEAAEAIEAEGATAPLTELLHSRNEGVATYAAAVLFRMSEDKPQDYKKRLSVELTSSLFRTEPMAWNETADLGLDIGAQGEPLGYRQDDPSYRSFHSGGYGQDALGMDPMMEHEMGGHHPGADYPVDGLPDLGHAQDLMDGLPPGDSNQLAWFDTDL

Biological target: Sox4 (human (endogenous in Ishikawa, Hec251 and Hec6)) (UniProt Q06945)
Assay: co-IP; lysates (TNE buffer: 10 mM Tris-HCl pH 7.6, 150 mM NaCl, 1 % NP-40, 1 mM EDTA) of Ishikawa, Hec251 and Hec6 cells cultured in STK2 for 5 days; precipitated with anti-Sox4 antibody and Protein G-Sepharose; blotted with anti-β-catenin and anti-Sox4

β-catenin (from UniProt P35222 1-781)
binding: binds weakly
